# ± gives the standard deviation of the averaged measurements. The entries are a selection whose mix differs from that of the whole data set.
# Columns and labels:
# Experiment in all cases: NP40-soluble protein abundance relative to vehicle (solubility fold change) (ratio); higher = more soluble protein in presence of AMP-PNP
# [1] = target: T1, A0A0C4DGS5|B7ZC06 and related entries (UniProt Q08379)
# T1 sequence (whole entry): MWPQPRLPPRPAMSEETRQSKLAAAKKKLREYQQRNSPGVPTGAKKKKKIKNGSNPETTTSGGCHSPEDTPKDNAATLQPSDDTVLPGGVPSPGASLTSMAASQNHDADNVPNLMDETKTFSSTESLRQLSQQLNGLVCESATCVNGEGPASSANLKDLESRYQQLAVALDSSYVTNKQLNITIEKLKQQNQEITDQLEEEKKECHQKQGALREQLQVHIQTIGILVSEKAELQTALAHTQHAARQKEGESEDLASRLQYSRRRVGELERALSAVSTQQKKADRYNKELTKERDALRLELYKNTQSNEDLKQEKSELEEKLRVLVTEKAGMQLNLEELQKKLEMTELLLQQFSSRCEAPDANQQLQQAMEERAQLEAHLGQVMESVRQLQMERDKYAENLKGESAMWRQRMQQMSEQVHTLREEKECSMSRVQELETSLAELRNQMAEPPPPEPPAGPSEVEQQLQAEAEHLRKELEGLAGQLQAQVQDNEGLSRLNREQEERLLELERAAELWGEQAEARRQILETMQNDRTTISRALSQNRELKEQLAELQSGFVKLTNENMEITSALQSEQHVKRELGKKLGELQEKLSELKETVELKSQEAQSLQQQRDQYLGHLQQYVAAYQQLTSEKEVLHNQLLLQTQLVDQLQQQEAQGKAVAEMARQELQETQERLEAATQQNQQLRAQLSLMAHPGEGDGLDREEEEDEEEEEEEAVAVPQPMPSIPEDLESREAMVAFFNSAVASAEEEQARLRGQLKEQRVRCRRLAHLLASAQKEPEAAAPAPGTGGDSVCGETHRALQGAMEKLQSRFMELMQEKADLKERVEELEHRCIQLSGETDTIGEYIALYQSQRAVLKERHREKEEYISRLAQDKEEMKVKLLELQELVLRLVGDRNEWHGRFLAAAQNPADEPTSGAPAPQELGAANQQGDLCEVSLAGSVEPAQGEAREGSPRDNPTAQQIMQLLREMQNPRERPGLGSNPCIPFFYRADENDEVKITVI
# Outline: (§1)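 Eight concentrations, 0.1 to 10 mM, were tested on Jurkat crude lysate for 10 min at room temperature and then 3 min at 37 °C, in three independent experiments. The lysate was solubilised with 0.8% NP40 and benzonase, ultracentrifuged, and the supernatant TMT-labelled for LC-MS/MS. Each value is the fold change against the detergent-processed vehicle in its own replicate, from vsn-normalised intensities.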
# [2] = target: T2, A0A0J9YVP6|E9PQ56 and related entries (UniProt Q9UHX1)
# T2 sequence (whole entry): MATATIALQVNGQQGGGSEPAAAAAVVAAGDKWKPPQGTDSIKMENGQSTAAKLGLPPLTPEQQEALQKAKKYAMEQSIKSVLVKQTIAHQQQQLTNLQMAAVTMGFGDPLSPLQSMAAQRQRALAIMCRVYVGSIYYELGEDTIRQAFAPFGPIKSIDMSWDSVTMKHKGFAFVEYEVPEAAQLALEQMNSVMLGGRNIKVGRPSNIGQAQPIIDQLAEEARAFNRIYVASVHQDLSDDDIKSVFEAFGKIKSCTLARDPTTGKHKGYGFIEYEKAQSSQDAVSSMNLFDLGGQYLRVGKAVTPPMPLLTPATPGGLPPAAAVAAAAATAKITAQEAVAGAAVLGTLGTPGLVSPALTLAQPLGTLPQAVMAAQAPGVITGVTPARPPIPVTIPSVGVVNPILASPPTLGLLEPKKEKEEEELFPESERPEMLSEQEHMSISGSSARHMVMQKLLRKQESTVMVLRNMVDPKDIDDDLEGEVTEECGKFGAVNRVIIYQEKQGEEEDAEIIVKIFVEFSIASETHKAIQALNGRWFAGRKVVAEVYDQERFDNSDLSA
# Outline: as §1
# [3] = target: T3, A0A0J9YYJ0|Q8N129 (UniProt Q8N129)
# T3 sequence (whole entry): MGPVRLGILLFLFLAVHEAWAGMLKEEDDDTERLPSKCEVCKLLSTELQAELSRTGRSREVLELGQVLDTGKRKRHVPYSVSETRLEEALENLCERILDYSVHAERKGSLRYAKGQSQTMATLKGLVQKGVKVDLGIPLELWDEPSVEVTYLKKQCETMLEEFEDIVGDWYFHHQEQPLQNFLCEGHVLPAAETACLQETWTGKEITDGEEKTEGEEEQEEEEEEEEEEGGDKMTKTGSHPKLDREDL
# Outline: as §1
# [4] = target: T4, A0A0U1RRH6|O94880 (UniProt O94880)
# T4 sequence (whole entry): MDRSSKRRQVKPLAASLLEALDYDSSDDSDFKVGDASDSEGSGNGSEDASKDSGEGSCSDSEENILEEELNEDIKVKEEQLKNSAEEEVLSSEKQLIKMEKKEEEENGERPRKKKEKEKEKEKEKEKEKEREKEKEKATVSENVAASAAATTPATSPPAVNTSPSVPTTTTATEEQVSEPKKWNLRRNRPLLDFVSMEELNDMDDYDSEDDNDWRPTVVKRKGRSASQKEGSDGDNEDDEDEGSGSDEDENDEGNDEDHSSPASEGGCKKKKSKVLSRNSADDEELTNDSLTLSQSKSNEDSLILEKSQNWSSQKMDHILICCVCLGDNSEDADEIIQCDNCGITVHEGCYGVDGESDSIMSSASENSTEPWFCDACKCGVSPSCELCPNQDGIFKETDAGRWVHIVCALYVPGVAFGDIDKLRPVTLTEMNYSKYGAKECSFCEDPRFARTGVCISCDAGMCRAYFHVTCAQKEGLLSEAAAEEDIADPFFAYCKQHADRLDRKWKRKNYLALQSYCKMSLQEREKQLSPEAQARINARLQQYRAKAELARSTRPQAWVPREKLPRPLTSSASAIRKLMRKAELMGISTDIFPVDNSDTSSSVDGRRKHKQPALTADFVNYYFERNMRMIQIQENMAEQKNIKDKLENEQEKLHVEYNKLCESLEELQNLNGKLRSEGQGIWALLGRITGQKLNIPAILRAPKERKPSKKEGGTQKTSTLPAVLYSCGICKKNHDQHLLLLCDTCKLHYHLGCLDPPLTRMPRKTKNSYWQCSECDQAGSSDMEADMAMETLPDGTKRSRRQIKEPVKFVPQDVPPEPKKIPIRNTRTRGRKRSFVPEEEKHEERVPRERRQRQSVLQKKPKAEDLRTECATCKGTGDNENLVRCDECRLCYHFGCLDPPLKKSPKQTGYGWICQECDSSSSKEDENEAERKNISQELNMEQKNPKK
# Outline: as §1
# [5] = target: T5, UHRF1BP1L (UniProt A0JNW5)
# T5 sequence (whole entry): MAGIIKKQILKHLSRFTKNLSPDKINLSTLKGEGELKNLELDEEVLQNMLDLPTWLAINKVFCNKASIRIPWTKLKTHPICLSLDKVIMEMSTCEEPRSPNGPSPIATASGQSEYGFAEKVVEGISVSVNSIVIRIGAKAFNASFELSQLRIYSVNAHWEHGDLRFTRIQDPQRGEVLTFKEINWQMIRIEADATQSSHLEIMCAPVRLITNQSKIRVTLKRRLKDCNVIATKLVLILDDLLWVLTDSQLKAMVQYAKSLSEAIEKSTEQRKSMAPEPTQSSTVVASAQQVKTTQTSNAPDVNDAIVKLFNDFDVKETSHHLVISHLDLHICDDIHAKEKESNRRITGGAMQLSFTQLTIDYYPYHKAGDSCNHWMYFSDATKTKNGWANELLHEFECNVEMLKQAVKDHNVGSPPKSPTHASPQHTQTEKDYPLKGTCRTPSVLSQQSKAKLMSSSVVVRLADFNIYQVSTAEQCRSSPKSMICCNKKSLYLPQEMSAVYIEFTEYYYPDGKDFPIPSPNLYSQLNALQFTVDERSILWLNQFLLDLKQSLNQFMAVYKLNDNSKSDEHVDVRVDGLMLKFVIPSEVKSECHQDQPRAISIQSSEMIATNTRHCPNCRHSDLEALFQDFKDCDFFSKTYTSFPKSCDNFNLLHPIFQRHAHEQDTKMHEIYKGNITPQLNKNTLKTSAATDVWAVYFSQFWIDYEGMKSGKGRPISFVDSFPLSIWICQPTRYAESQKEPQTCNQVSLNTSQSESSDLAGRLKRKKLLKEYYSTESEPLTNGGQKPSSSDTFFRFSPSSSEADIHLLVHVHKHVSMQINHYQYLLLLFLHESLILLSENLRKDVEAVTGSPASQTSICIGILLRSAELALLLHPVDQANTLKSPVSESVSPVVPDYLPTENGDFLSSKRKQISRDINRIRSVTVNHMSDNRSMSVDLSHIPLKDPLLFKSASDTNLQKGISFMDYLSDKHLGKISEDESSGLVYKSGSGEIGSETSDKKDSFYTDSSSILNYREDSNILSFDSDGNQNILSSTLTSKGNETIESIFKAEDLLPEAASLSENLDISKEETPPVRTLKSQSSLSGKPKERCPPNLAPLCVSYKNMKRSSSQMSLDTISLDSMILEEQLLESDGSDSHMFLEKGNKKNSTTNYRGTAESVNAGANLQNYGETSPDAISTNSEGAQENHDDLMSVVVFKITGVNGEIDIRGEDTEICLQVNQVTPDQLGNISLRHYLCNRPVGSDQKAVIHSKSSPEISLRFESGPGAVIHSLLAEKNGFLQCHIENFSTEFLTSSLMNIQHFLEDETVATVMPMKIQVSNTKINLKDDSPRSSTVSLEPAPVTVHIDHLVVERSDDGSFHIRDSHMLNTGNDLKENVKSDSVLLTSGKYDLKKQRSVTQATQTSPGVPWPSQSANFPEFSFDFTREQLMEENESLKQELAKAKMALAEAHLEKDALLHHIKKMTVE
# Outline: as §1
smiles,measurement,setting,value
Nc1ncnc2c1ncn2[C@@H]1O[C@H](COP(=O)(O)OP(=O)(O)NP(=O)(O)O)[C@@H](O)[C@H]1O [adenylyl imidodiphosphate],NP40-soluble protein abundance,[1]; concentration: 6mM,0.975 ± 0.017
same,NP40-soluble protein abundance,[1]; concentration: 8mM,0.9428 ± 0.0076
same,NP40-soluble protein abundance,[1]; concentration: 10mM,0.952 ± 0.028
same,NP40-soluble protein abundance,[2]; concentration: 1mM,1.02 ± 0.019
same,NP40-soluble protein abundance,[2]; concentration: 2mM,1.01 ± 0.032
same,NP40-soluble protein abundance,[2]; concentration: 4mM,1.03 ± 0.017
same,NP40-soluble protein abundance,[2]; concentration: 6mM,1.1 ± 0.027
same,NP40-soluble protein abundance,[2]; concentration: 8mM,1.14 ± 0.051
same,NP40-soluble protein abundance,[2]; concentration: 10mM,1.18 ± 0.037
same,NP40-soluble protein abundance,[3]; concentration: 1mM,1.03 ± 0.031
same,NP40-soluble protein abundance,[3]; concentration: 2mM,1.019 ± 0.0019
same,NP40-soluble protein abundance,[3]; concentration: 4mM,1.001 ± 0.0036
same,NP40-soluble protein abundance,[3]; concentration: 6mM,0.994 ± 0.023
same,NP40-soluble protein abundance,[3]; concentration: 8mM,0.9957 ± 0.0098
same,NP40-soluble protein abundance,[3]; concentration: 10mM,0.992 ± 0.012
same,NP40-soluble protein abundance,[4]; concentration: 1mM,1.02 ± 0.036
same,NP40-soluble protein abundance,[4]; concentration: 2mM,1.07 ± 0.03
same,NP40-soluble protein abundance,[4]; concentration: 4mM,1.14 ± 0.025
same,NP40-soluble protein abundance,[4]; concentration: 6mM,1.21 ± 0.017
same,NP40-soluble protein abundance,[4]; concentration: 8mM,1.27 ± 0.035
same,NP40-soluble protein abundance,[4]; concentration: 10mM,1.36 ± 0.092
same,NP40-soluble protein abundance,[5]; concentration: 1mM,1.02 ± 0.027
same,NP40-soluble protein abundance,[5]; concentration: 2mM,1.01 ± 0.037
same,NP40-soluble protein abundance,[5]; concentration: 4mM,1 ± 0.048
same,NP40-soluble protein abundance,[5]; concentration: 6mM,1 ± 0.056
same,NP40-soluble protein abundance,[5]; concentration: 8mM,0.98 ± 0.059
same,NP40-soluble protein abundance,[5]; concentration: 10mM,1 ± 0.079

# Given with bars between the fields: part of the list above
smiles | measurement | setting | value
Nc1ncnc2c1ncn2[C@@H]1O[C@H](COP(=O)(O)OP(=O)(O)NP(=O)(O)O)[C@@H](O)[C@H]1O [adenylyl imidodiphosphate] | NP40-soluble protein abundance | [1]; concentration: 10mM | 0.952 ± 0.028
same | NP40-soluble protein abundance | [2]; concentration: 1mM | 1.02 ± 0.019
same | NP40-soluble protein abundance | [2]; concentration: 2mM | 1.01 ± 0.032
same | NP40-soluble protein abundance | [2]; concentration: 4mM | 1.03 ± 0.017
same | NP40-soluble protein abundance | [2]; concentration: 6mM | 1.1 ± 0.027
same | NP40-soluble protein abundance | [2]; concentration: 8mM | 1.14 ± 0.051
